Laboratory results published in paper PMC3597553.
No constants are given. Whether binding was seen depends on the method and setting. In cells and extracts the contact can be indirect. Some binding calls cover weakened binding; strength is not graded here.

Protein sequences, listed by entry. Tags and fused reporters are not part of them.
UniProt P25095: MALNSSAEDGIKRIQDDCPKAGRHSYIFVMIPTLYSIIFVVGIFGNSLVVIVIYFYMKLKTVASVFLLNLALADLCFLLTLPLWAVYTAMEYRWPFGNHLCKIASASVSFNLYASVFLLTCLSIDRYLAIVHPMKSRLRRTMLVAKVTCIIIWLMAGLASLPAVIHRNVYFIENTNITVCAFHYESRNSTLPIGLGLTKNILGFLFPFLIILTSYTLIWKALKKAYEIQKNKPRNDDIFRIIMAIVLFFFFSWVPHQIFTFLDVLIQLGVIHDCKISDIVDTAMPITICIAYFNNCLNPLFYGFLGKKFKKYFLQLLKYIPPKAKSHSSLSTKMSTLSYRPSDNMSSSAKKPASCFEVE
UniProt P32120: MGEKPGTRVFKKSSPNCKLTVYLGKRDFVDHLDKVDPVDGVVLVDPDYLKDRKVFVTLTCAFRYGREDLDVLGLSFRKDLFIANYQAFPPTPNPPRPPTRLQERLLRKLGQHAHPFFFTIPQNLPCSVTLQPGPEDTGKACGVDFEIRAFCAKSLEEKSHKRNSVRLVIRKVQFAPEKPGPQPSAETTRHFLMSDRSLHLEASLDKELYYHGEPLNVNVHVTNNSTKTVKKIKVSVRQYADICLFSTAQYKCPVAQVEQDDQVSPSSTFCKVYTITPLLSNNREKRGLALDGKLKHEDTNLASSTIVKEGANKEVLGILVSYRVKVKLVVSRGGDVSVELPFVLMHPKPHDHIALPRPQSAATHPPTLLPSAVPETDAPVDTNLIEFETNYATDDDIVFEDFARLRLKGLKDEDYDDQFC

Biological target: angiotensin II type 1 receptor tagged with Renilla luciferase (AT1R-Rluc8) (not stated (rat AT1a and human AT1R plasmids are listed)) (UniProt P25095)
Assay: FRET or BRET; BRET1 measured in real time in living HEK293 cells co-expressing AT1R-Rluc and YFP-β-arrestin2; AngII concentration-response; in absence or presence of untagged TPαR; cells in PBS with 0.5 mM Ca2+ and 0.5 mM Mg2+

binding: binds
Substance: YFP-tagged bovine β-arrestin2 (from UniProt P32120 1-420)
